Source: PubChem BioAssay AID1259281 (Sanger Institute, 2017)

Screen: 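Find knock-downs that kill colorectal cancer cells alone or strengthen targeted drugs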 (primary screen)
Cells: human COLO678 colorectal cancer cell line
Reagent: siRNA pool against human genes
Conditions: anchor drugs at fixed doses: BYL719 1 µM, cetuximab 5 µg/ml or trametinib 10 nM; DMSO vehicle for the siRNA-alone arm
Read-out: 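Cell viability compared with non-targeting pool wells, averaged over replicates; knock-down-alone effect also as robust z-score; synergy scores set knock-down plus drug against expected joint effect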
Reading the numbers: robust z-score, siRNA alone: higher = more viable cells; strongly negative means essential; viability, siRNA alone: higher = more surviving cells; synergy score with BYL719: higher = stronger synergistic killing with drug
Call rule: 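Called essential (knock-down alone) if knock-down by itself drops cell number to a robust z-score under -3; all others no change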
Meaning of the calls: active = essential (knock-down alone); inactive = no change
Here is a random part of 794 deposited reagents. In the full data, 22 (2.8%) were called active. 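Calls rest on knock-down alone only; drug synergy scores play no part in them.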 No viability above 1 is reported: the scale is capped. Further read-outs or replicates are left out here. Not given: the amount of reagent, the time to read-out.

gene symbol	robust z-score, siRNA alone	viability, siRNA alone (fraction of control)	synergy score with BYL719	Outcome
TYK2 (tyrosine kinase 2)	-0.0418	0.984	-0.057	inactive
GUK1 (guanylate kinase 1)	-0.479	0.97	-0.0725	inactive
UCK1 (uridine-cytidine kinase 1)	0.473	1	-0.0919	inactive
LCK (LCK proto-oncogene, Src family tyrosine kinase)	-1.35	0.942	-0.0762	inactive
CLK2 (CDC like kinase 2)	0.473	1	0.0148	inactive
DGKH (diacylglycerol kinase eta)	0.473	1	-0.008	inactive
AKT2 (AKT serine/threonine kinase 2)	0.473	1	-0.0767	inactive
PRPS1 (phosphoribosyl pyrophosphate synthetase 1)	0.473	1	0.0182	inactive
TYRO3 (TYRO3 protein tyrosine kinase)	-2.3	0.912	-0.156	inactive
CDC7 (cell division cycle 7)	0.473	1	0.0883	inactive
PKMYT1 (protein kinase, membrane associated tyrosine/threonine 1)	0.0285	0.986	-0.0923	inactive
WNK1 (WNK lysine deficient protein kinase 1)	0.473	1	0.102	inactive
PDGFRA (platelet derived growth factor receptor alpha)	0.473	1	-0.0566	inactive

Continued (4 carried over from the part before).
gene symbol	robust z-score, siRNA alone	viability, siRNA alone (fraction of control)	synergy score with BYL719	Outcome
CDC7 (cell division cycle 7)	0.473	1	0.0883	inactive
PKMYT1 (protein kinase, membrane associated tyrosine/threonine 1)	0.0285	0.986	-0.0923	inactive
WNK1 (WNK lysine deficient protein kinase 1)	0.473	1	0.102	inactive
PDGFRA (platelet derived growth factor receptor alpha)	0.473	1	-0.0566	inactive
FN1 (fibronectin 1)	0.473	1	-0.0635	inactive
SYNCRIP (synaptotagmin binding cytoplasmic RNA interacting protein)	0.347	0.996	0.18	inactive
ROR2 (ROR family WNT receptor 2)	0.473	1	-0.0558	inactive
CASP8 (caspase 8)	0.473	1	-0.0919	inactive
SIK1 (salt inducible kinase 1)	0.473	1	-0.0919	inactive
HIPK2 (homeodomain interacting protein kinase 2)	0.473	1	-0.0586	inactive
SRP72 (signal recognition particle 72)	0.473	1	-0.0919	inactive
CSNK2B (casein kinase 2 beta)	0.473	1	0.0464	inactive
CAMK2N1 (calcium/calmodulin dependent protein kinase II inhibitor 1)	0.473	1	0.213	inactive
MAPK12 (mitogen-activated protein kinase 12)	0.473	1	-0.0919	inactive
AK7 (adenylate kinase 7)	0.455	0.999	0.00458	inactive
GRK4 (G protein-coupled receptor kinase 4)	0.473	1	-0.0889	inactive
PRAG1 (PEAK1 related, kinase-activating pseudokinase 1)	-1.01	0.953	0.0793	inactive
PIK3R1 (phosphoinositide-3-kinase regulatory subunit 1)	0.473	1	-0.0649	inactive
PHKB (phosphorylase kinase regulatory subunit beta)	0.203	0.991	-0.00182	inactive
IDH2 (isocitrate dehydrogenase (NADP(+)) 2)	0.473	1	-0.00591	inactive
CLK1 (CDC like kinase 1)	0.473	1	-0.0373	inactive
CDK5R2 (cyclin dependent kinase 5 regulatory subunit 2)	0.473	1	-0.0919	inactive
NEK5 (NIMA related kinase 5)	0.473	1	-0.0919	inactive
EPHA4 (EPH receptor A4)	0.473	1	-0.0212	inactive
CREBBP (CREB binding lysine acetyltransferase)	-2.99	0.89	0.0458	inactive
